Test results: the supplement of paper PMC10849652
The other results are listed elsewhere or left out.

Chains of the proteins cited; added tags and fusions are not shown. Lines headed by an entry give the natural chain unless they say otherwise; changes in a name come on top.
UniProt Q8IWB1: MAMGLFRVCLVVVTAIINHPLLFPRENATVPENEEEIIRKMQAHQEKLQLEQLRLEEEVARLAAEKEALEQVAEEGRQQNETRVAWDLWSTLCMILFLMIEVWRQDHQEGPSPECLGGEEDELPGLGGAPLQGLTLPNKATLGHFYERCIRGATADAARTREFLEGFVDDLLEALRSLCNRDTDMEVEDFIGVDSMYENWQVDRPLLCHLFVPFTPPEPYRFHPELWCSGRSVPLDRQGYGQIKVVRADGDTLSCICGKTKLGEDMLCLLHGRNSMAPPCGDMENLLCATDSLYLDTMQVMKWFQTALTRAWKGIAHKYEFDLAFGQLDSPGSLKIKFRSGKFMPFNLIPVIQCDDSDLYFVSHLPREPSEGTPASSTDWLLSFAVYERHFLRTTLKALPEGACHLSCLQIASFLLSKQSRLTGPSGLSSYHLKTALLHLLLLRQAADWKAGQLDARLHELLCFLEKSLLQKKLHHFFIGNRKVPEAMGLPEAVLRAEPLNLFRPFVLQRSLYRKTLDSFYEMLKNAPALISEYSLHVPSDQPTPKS
UniProt Q96LU5: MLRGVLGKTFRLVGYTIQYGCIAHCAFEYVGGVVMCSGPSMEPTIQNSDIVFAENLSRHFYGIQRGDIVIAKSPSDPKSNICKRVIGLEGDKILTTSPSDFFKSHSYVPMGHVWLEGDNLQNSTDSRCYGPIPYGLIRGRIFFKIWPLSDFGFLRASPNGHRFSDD
UniProt Q9H6K1: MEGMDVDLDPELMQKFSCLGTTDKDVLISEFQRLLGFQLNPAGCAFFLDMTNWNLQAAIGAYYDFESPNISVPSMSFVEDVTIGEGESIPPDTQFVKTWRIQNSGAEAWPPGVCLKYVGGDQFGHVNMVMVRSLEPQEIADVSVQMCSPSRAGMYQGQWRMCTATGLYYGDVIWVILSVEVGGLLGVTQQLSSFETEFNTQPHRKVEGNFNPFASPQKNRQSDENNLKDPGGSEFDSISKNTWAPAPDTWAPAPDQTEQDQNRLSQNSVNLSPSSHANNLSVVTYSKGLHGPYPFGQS
UniProt Q96A47: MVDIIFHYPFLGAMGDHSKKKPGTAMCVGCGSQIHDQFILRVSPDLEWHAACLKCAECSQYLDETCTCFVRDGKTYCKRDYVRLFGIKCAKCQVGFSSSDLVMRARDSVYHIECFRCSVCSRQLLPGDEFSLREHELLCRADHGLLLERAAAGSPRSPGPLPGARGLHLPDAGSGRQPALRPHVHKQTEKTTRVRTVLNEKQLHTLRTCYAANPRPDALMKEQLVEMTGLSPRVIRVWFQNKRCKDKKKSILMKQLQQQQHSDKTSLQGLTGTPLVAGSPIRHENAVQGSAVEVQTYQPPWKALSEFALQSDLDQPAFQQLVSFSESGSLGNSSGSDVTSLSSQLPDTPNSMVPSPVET
UniProt Q01628, whole entry, looked up: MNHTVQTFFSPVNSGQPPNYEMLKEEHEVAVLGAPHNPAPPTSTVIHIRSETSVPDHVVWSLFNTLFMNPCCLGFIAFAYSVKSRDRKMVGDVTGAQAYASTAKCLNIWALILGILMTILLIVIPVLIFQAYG
UniProt Q96AB3: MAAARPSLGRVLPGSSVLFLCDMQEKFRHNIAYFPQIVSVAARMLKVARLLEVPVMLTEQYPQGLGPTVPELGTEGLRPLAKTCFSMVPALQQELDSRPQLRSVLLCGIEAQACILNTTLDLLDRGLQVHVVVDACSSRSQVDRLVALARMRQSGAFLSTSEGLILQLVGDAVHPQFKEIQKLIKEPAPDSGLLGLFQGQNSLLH
UniProt Q14643, whole entry, looked up: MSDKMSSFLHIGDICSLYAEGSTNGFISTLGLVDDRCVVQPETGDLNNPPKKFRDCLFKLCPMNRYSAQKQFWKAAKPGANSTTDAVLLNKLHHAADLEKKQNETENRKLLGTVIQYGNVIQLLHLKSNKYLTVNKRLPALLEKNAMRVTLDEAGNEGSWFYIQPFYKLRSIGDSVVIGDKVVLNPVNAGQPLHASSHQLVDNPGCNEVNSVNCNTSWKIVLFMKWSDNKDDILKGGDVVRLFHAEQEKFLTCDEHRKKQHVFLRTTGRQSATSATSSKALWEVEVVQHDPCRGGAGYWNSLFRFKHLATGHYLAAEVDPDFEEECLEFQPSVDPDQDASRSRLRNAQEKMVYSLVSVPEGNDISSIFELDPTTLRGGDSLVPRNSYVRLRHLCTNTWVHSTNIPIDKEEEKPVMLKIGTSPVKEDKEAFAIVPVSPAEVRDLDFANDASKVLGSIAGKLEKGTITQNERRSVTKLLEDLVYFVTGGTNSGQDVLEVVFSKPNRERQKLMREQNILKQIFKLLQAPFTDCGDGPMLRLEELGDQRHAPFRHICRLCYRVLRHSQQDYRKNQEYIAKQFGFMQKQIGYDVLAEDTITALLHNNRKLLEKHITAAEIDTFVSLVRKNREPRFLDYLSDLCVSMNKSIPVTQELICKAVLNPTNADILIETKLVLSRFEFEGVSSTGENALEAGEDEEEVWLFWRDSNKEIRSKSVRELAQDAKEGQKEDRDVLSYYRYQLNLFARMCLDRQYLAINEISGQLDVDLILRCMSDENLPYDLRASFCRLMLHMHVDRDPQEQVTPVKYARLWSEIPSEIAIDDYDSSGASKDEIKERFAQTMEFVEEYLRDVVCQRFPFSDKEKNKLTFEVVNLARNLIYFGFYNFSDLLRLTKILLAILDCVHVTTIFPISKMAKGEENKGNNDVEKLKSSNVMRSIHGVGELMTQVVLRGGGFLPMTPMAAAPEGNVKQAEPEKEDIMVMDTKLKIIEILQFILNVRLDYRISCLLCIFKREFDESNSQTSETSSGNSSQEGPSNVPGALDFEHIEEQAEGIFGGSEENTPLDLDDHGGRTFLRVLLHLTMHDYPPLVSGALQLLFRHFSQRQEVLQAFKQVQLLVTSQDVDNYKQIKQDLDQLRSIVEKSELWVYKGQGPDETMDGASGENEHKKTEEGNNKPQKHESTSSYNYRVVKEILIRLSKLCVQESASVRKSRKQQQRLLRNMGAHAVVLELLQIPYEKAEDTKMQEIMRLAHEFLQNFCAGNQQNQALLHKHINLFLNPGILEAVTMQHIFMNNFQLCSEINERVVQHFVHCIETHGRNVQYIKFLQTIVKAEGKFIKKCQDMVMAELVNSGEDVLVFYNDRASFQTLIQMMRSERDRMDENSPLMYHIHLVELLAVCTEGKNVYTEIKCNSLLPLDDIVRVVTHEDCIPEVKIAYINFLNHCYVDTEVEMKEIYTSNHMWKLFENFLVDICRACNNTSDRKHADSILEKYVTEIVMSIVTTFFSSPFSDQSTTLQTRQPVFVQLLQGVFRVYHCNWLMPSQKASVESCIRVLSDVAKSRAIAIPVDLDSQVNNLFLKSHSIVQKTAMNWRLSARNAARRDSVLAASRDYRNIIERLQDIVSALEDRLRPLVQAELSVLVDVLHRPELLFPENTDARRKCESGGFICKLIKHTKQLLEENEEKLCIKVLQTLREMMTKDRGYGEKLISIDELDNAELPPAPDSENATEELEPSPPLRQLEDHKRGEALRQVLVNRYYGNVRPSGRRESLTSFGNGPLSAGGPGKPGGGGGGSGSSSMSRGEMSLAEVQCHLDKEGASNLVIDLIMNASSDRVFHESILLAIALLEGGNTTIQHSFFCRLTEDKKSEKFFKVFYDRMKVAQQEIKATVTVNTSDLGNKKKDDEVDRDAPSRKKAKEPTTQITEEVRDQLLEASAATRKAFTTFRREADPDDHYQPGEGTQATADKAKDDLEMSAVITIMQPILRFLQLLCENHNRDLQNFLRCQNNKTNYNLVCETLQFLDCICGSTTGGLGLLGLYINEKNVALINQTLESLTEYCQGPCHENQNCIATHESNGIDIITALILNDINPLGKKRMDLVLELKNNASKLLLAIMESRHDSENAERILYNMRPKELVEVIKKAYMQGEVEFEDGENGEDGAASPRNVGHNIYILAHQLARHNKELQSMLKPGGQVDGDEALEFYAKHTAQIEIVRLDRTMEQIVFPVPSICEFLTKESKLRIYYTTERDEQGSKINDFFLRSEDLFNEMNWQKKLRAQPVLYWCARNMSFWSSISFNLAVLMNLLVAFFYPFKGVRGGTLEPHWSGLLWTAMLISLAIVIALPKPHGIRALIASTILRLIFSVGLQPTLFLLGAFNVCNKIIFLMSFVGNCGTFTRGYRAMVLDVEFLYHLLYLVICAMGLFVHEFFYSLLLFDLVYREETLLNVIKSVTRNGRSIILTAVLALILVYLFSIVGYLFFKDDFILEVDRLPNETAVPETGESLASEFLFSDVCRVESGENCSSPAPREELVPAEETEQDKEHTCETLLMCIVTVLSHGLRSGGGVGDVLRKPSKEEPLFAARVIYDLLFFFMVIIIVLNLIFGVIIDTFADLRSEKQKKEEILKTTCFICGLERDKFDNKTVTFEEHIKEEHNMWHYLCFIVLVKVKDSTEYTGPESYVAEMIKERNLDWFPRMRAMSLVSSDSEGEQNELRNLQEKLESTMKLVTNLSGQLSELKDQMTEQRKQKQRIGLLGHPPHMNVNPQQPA
UniProt Q9NPH3, whole entry, looked up: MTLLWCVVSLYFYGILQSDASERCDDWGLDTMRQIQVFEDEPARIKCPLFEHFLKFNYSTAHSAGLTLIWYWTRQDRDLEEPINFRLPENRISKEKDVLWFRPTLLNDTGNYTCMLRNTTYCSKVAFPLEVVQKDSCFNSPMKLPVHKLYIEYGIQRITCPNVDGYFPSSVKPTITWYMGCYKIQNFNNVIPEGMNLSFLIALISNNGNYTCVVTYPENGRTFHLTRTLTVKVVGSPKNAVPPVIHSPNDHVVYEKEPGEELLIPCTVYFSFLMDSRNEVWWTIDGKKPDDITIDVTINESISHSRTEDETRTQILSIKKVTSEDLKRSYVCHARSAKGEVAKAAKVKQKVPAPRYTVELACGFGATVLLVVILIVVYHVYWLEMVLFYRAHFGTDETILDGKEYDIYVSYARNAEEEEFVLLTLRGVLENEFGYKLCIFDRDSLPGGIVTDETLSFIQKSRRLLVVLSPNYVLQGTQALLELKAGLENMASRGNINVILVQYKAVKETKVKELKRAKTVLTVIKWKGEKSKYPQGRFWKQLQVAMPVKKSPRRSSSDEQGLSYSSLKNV
UniProt Q9Y287, whole entry, looked up: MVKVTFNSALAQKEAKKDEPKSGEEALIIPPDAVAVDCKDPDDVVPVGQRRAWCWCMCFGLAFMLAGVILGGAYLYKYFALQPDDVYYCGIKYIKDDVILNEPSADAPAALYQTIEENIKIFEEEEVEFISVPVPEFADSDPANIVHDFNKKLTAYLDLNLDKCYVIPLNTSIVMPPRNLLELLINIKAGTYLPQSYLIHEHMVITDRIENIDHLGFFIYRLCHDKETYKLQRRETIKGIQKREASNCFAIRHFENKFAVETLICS
UniProt Q9Y5U9: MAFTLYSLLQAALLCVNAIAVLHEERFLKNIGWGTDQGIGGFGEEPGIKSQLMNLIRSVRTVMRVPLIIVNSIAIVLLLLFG
UniProt Q9Y573: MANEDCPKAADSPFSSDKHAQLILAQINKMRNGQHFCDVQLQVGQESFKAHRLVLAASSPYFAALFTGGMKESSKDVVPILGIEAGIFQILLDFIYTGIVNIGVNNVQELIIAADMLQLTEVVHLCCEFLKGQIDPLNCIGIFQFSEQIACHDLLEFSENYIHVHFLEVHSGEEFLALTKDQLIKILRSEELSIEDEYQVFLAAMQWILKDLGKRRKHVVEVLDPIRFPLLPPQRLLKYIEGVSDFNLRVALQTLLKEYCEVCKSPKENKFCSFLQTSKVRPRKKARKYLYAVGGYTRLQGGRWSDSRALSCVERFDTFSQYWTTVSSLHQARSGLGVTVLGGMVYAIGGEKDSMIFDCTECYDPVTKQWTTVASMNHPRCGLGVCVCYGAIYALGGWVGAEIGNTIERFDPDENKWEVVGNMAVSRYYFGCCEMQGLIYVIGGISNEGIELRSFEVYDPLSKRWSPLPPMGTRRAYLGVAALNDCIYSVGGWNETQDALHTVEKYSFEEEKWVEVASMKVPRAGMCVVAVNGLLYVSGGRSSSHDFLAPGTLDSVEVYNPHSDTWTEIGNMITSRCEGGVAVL
UniProt Q5VWK5: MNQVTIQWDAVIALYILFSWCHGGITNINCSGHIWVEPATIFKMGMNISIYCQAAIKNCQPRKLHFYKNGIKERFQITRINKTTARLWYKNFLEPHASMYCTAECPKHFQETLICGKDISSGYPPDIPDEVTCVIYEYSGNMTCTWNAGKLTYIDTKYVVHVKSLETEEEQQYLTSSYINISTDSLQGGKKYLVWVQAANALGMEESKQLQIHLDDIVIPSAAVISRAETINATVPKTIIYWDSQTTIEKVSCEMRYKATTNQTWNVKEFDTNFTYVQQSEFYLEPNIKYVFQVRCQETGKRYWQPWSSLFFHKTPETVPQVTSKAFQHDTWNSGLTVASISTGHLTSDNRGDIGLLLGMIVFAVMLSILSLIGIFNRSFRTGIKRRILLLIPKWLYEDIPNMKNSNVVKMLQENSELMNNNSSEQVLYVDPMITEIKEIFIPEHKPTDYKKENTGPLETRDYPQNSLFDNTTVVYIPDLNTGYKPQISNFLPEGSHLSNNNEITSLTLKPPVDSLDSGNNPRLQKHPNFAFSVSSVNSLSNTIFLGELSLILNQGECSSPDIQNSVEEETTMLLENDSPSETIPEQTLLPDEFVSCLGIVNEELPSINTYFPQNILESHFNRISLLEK

Key:
Test in all cases: log2 fold change, soluble protein after heating vs DMSO (PISA); higher = thermal stabilisation; K562 cells, 10 uM, 30 min; active = over 0.2 and 3.5 SD of the protein, either way, in both replicates (recomputed)
[1] = compound: Cc1ccc(NC(=O)c2ccc(CN3CC[C@H](N(C)C)C3)c(C(F)(F)F)c2)cc1Nc1nccc(-c2cncnc2)n1 [bafetinib]
Summary of the method: (§1)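 Soluble protein was quantified by TMTpro 16plex LC-MS/MS after channel sums were equalised. It was obtained as the supernatant after 21,000xg for 90 min from pooled aliquots of K562 cells (2×10^6 cells/mL, 10 μM compound, 30 min) heated for 3 min across 48°C-58°C and extracted in PBS with 0.5% NP-40 at 4°C. Thermal stability values are relative to control samples and come from duplicates. They are given as log2 fold changes.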

[2] = compound: Cc1cccc(CC(=O)N2CCc3c2ccc(-c2cn(C)c4ncnc(N)c24)c3F)n1
Summary of the method: as §1

[3] = compound: Cc1cn(-c2cc(NC(=O)c3ccc(C)c(Nc4nccc(-c5cccnc5)n4)c3)cc(C(F)(F)F)c2)cn1 [nilotinib]
Summary of the method: as §1

[4] = compound: Cc1nc(Nc2n[nH]c3c2CN(C(=O)N[C@H](CN(C)C)c2ccccc2)C3(C)C)c2sccc2n1
Summary of the method: as §1

[5] = compound: Cc1nc(Nc2ncc(C(=O)Nc3c(C)cccc3Cl)s2)cc(N2CCN(CCO)CC2)n1 [dasatinib]
Summary of the method: as §1

[6] = compound: Cc1ncc(-c2ccnc(Nc3ccc(S(C)(=O)=O)cc3)n2)n1C(C)C
Summary of the method: as §1

[7] = compound: Cn1cc(-c2ccc3c(c2)CCN3C(=O)Cc2cccc(C(F)(F)F)c2)c2c(N)ncnc21
Summary of the method: as §1

[8] = compound: Cn1cc(-c2ccc3nnc(C(F)(F)c4ccc5ncccc5c4)n3n2)cn1
Summary of the method: as §1

[9] = compound: Cn1cncc1[C@@](N)(c1ccc(Cl)cc1)c1ccc2c(c1)c(-c1cccc(Cl)c1)cc(=O)n2C [tipifarnib]
Summary of the method: as §1

[10] = compound: FC(F)(F)c1ccc(/C=C/c2nc(COc3ccc(CCCCn4ccnn4)cc3)co2)cc1 [mubritinib]
Summary of the method: as §1

[11] = compound: NC(=O)Nc1cc(-c2cccc(F)c2)sc1C(=O)N[C@H]1CCCNC1
Summary of the method: as §1

[12] = compound: NC(=O)c1cnc(N[C@@H]2CCCC[C@@H]2N)nc1Nc1cccc(-n2nccn2)c1
Summary of the method: as §1

[13] = compound: NC1(c2ccc(-c3nc4ccn5c(=O)[nH]nc5c4cc3-c3ccccc3)cc2)CCC1
Summary of the method: as §1

[14] = compound: NCC(=O)Nc1ccc(-n2nc(C(F)(F)F)cc2-c2ccc3c(ccc4ccccc43)c2)cc1
Summary of the method: as §1

[15] = compound: Nc1ccccc1NC(=O)c1ccc(CNC(=O)OCc2cccnc2)cc1 [entinostat]
Summary of the method: as §1

[16] = compound: O=C(CCCCCCC(=O)Nc1ccccc1)NO [vorinostat]
Summary of the method: as §1

[17] = compound: O=C(CCCCCCNC(=O)c1cnc(N(c2ccccc2)c2ccccc2Cl)nc1)NO [citarinostat]
Summary of the method: as §1

[18] = compound: O=C(O)c1ccc2c(c1)nc(Nc1cccc(Cl)c1)c1ccncc12 [silmitasertib]
Summary of the method: as §1

[19] = compound: O=C1NC(=O)C(c2cnc3ccccn23)=C1c1cn2c3c(cc(F)cc13)CN(C(=O)N1CCCCC1)CC2
Summary of the method: as §1

[20] = compound: c1cc(OCCN2CCCCC2)cc(-c2n[nH]c3ccc(-c4nnc[nH]4)cc23)c1
Summary of the method: as §1

Measured: log2 fold change

IDH2 (UniProt P48735)
inactive: [1] 0.029 | [2] -0.002 | [3] -0.021 | [4] 0.051 | [5] -0.02 | [6] 0.018 | [7] 0.08 | [8] 0.048 | [9] -0.027 | [10] -0.011 | [11] -0.085 | [12] 0.004 | [13] -0.029 | [14] 0 | [15] 0.014 | [16] -0.007 | [17] 0.021 | [18] 0.008 | [19] -0.033 | [20] -0.002

ITPRIP (UniProt Q8IWB1)
active: [13] -0.373
inactive: [1] -0.126 | [2] -0.016 | [3] -0.109 | [4] 0.035 | [5] -0.041 | [6] -0.08 | [7] 0.073 | [8] 0.012 | [9] -0.007 | [10] 0.061 | [11] -0.041 | [12] -0.031 | [14] -0.021 | [15] -0.01 | [16] -0.08 | [17] -0.076 | [18] -0.009 | [19] 0.019 | [20] -0.06

IRAK1 (UniProt P51617)
inactive: [1] 0.166 | [2] 0.174 | [3] -0.049 | [4] -0.178 | [6] 0.097 | [8] -0.164 | [10] 0.001 | [11] 0.229 | [13] 0.003 | [15] -0.216 | [16] 0.294 | [17] -0.063 | [18] 0.057 | [19] 0.102 | [20] -0.259

IMMP1L (UniProt Q96LU5)
inactive: [1] -0.024 | [3] -0.044 | [4] 0.059 | [5] 0.098 | [6] 0.03 | [7] 0.068 | [8] 0.071 | [9] 0.02 | [10] 0.048 | [11] -0.062 | [12] -0.055 | [13] -0.103 | [14] -0.037 | [15] 0.005 | [17] 0.044 | [18] -0.132 | [19] -0.088 | [20] 0.017

IDH3A isoform 2 (UniProt P50213)
inactive: [1] 0.004 | [3] 0 | [4] 0.001 | [6] -0.057 | [7] 0.128 | [12] -0.06

ING1 (UniProt Q9UK53)
inactive: [1] 0.024 | [7] -0.047 | [10] 0.027 | [11] -0.08 | [12] -0.015 | [13] 0.441 | [15] 0.128 | [17] -0.058 | [18] -0.015 | [20] -0.563

ILRUN (UniProt Q9H6K1)
inactive: [1] -0.05 | [3] -0.01 | [4] -0.086 | [5] -0.08 | [7] -0.013 | [8] -0.039 | [9] -0.023 | [10] 0.029 | [11] -0.213 | [12] -0.09 | [13] -0.128 | [14] -0.025 | [15] 0.024 | [17] 0.027 | [18] 0.014 | [19] -0.059 | [20] -0.01
active: [6] 0.258

ITGA2B (UniProt P08514)
active: [16] -0.495
inactive: [2] 0.256 | [3] -0.04 | [4] -0.013 | [5] 0.012 | [6] -0.151 | [7] -0.122 | [8] -0.051 | [9] 0.073 | [11] 0.085 | [12] -0.222 | [14] -0.009 | [15] -0.009 | [19] 0.02

ISL2 (UniProt Q96A47)
inactive: [1] -0.155 | [2] -0.132 | [7] 0.075 | [12] 0.06 | [16] 0.029 | [17] -0.104 | [20] 0.032

IFITM3 (UniProt Q01628)
inactive: [1] -0.073 | [3] 0.07 | [4] -0.2 | [5] -0.076 | [6] -0.01 | [7] 0.049 | [8] -0.149 | [9] 0.113 | [10] -0.157 | [11] -0.074 | [12] 0.1 | [13] -0.089 | [14] 0.14 | [15] 0.008 | [17] 0.232 | [18] -0.111 | [19] 0.072 | [20] -0.164

ISOC2 (UniProt Q96AB3)
inactive: [1] -0.052 | [3] 0.047 | [4] 0.043 | [5] -0.018 | [6] -0.047 | [7] -0.103 | [8] 0.094 | [9] -0.041 | [10] -0.053 | [11] 0.013 | [12] -0.146 | [13] 0.059 | [14] 0.022 | [15] 0.007 | [17] -0.005 | [18] 0.05 | [19] -0.029 | [20] -0.098

INHBE (UniProt P58166)
inactive: [1] 0.056 | [10] -0.108 | [11] 0.142 | [13] 0.073 | [14] -0.047 | [15] 0.167 | [17] 0 | [18] 0.08 | [20] 0.019

Taken from the listing (two entries):
ITGA2B (UniProt P08514)
active: [16] -0.495
inactive: [2] 0.256 | [3] -0.04 | [4] -0.013 | [5] 0.012 | [6] -0.151 | [7] -0.122 | [8] -0.051 | [9] 0.073 | [11] 0.085 | [12] -0.222 | [14] -0.009 | [15] -0.009 | [19] 0.02

ISL2 (UniProt Q96A47)
inactive: [1] -0.155 | [2] -0.132 | [7] 0.075 | [12] 0.06 | [16] 0.029 | [17] -0.104 | [20] 0.032

(listing goes on)

ITPR1 (UniProt Q14643)
inactive: [1] 0.317 | [7] -0.319 | [8] 0.01 | [19] 0

IKBKB (UniProt O14920)
inactive: [1] -0.342 | [3] 0.121 | [4] -0.041 | [5] 0.075 | [6] -0.095 | [7] -0.284 | [8] -0.053 | [9] -0.289 | [10] 0.184 | [11] -0.049 | [13] -0.16 | [14] -0.185 | [15] 0.092 | [17] -0.109 | [18] 0.076 | [19] 0.3 | [20] -0.216

IL1RAP isoform 5 (UniProt Q9NPH3)
inactive: [1] 0.322 | [2] -0.178 | [5] -0.083 | [7] -0.194 | [8] 0.138 | [9] -0.151 | [12] -0.308 | [14] -0.388 | [16] 0.271 | [17] -0.012 | [19] -0.006 | [20] -0.054

INTS5 (UniProt Q6P9B9)
inactive: [1] -0.035 | [3] 0.146 | [4] -0.08 | [5] -0.11 | [6] 0.167 | [8] -0.003 | [9] -0.145 | [10] 0.23 | [11] 0.015 | [12] -0.116 | [13] -0.079 | [14] -0.175 | [15] 0.014 | [18] -0.006 | [19] -0.076

IGLL5 (UniProt B9A064)
inactive: [1] 0.307 | [2] -0.026 | [3] -0.043 | [4] -0.201 | [6] -0.114 | [9] -0.014 | [10] -0.412 | [11] 0.887 | [13] 0.156 | [15] -0.055 | [16] 0.065 | [17] -0.032 | [18] 0.397 | [20] 0.401

ITM2B (UniProt Q9Y287)
inactive: [1] -0.112 | [3] 0.006 | [4] -0.062 | [5] 0.006 | [6] 0.033 | [7] 0.035 | [8] -0.04 | [9] 0.006 | [10] 0.059 | [11] -0.036 | [12] 0.091 | [13] -0.144 | [14] 0.021 | [15] -0.083 | [17] -0.006 | [19] 0.109 | [20] -0.178
active: [18] 0.38

IER3IP1 (UniProt Q9Y5U9)
inactive: [1] -0.127 | [2] -0.073 | [5] -0.051 | [7] -0.019 | [8] -0.157 | [9] -0.044 | [10] 0.12 | [11] 0.094 | [12] 0.189 | [13] -0.155 | [14] 0.218 | [15] 0.055 | [16] -0.044 | [17] 0.054 | [18] 0.118 | [19] 0.267 | [20] 0.08

IPP (UniProt Q9Y573)
inactive: [1] -0.225 | [12] 0.047

IL23R (UniProt Q5VWK5)
inactive: [1] 0.316 | [5] 0.168 | [7] -0.163 | [12] -0.31 | [14] -0.372

IGHG1 (UniProt P01857)
inactive: [1] 0.251 | [3] 0 | [4] 0.015 | [5] 0.06 | [6] 0.211 | [10] -0.246 | [11] 1.02 | [13] 0.216 | [14] 0.317 | [15] 0.18 | [17] -0.052 | [18] -0.002 | [20] 0.273

INF2 (UniProt Q27J81)
inactive: [1] -0.125 | [3] -0.062 | [4] -0.149 | [5] 0.036 | [6] 0.006 | [7] -0.057 | [8] 0.031 | [10] 0.062 | [11] 0.054 | [12] 0.025 | [13] -0.05 | [15] 0.085 | [18] 0.029 | [19] 0.233
